Reference: the supplement of paper PMC10849652
This is one part of the list.

Chains of the proteins cited; added tags and fusions are not shown. Lines headed by an entry give the natural chain unless they say otherwise; changes in a name come on top.
UniProt P51153: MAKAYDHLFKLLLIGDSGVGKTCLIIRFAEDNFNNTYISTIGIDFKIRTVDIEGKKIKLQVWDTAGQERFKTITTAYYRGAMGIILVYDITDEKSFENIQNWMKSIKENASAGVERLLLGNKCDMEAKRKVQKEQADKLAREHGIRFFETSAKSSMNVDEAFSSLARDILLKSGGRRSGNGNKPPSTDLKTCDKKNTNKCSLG
UniProt P78406: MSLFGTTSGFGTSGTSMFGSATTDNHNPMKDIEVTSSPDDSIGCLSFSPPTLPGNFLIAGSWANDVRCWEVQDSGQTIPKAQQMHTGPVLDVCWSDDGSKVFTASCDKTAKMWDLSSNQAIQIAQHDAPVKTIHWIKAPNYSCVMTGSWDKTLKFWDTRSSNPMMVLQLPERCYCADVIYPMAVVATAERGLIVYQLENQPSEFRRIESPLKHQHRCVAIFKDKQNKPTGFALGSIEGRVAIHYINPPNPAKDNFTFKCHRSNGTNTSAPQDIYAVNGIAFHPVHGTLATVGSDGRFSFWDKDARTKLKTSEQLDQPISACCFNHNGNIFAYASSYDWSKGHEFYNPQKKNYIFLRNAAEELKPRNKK
UniProt P11233: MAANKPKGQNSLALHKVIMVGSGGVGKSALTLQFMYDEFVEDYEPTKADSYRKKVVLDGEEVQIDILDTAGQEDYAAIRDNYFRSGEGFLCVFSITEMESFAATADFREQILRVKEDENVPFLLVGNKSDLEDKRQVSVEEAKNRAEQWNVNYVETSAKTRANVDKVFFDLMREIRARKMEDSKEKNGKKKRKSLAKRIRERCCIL
UniProt Q9NS91, whole entry, looked up: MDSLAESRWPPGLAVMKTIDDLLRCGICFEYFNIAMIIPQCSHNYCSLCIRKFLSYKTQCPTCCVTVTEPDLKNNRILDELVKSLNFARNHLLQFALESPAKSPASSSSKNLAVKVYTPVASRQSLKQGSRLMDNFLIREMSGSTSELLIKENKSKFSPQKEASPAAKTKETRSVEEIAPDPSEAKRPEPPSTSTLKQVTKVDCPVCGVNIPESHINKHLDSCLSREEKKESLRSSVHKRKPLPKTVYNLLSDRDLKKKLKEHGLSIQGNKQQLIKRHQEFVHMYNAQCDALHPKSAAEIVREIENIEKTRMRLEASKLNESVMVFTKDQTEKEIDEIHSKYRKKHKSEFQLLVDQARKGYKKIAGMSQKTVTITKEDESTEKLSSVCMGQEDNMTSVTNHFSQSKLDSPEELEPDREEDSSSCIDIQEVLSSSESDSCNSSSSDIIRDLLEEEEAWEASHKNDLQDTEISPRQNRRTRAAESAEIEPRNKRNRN
UniProt P20340: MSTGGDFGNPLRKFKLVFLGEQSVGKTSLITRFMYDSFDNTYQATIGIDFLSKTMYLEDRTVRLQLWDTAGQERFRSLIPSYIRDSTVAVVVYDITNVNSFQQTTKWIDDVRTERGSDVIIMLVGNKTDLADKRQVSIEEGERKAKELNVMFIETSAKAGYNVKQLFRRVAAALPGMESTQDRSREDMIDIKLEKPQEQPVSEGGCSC
UniProt Q9BUV8: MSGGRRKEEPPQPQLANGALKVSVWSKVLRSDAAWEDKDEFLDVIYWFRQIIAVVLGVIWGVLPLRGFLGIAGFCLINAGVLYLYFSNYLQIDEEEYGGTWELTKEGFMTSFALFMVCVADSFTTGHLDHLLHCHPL
UniProt P61018: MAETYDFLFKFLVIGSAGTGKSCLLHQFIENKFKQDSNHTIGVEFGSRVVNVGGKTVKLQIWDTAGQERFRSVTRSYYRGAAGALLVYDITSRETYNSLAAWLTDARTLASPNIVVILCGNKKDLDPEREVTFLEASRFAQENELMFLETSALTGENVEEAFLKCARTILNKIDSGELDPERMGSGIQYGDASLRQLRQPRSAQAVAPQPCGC
UniProt Q5T160: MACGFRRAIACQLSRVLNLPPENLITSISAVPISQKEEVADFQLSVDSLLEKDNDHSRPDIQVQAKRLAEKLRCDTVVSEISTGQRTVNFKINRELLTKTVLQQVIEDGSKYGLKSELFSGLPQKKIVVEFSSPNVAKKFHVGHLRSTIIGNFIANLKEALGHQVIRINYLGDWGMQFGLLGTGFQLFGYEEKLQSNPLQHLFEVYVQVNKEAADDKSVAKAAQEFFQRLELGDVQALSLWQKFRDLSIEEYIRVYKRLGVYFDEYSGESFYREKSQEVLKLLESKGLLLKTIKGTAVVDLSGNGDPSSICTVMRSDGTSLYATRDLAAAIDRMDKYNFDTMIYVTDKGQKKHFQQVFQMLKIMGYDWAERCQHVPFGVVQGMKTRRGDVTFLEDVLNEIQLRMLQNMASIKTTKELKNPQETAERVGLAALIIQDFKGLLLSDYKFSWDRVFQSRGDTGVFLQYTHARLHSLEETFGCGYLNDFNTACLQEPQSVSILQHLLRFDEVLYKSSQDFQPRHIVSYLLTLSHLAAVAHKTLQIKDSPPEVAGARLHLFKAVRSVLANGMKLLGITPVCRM
UniProt P98175: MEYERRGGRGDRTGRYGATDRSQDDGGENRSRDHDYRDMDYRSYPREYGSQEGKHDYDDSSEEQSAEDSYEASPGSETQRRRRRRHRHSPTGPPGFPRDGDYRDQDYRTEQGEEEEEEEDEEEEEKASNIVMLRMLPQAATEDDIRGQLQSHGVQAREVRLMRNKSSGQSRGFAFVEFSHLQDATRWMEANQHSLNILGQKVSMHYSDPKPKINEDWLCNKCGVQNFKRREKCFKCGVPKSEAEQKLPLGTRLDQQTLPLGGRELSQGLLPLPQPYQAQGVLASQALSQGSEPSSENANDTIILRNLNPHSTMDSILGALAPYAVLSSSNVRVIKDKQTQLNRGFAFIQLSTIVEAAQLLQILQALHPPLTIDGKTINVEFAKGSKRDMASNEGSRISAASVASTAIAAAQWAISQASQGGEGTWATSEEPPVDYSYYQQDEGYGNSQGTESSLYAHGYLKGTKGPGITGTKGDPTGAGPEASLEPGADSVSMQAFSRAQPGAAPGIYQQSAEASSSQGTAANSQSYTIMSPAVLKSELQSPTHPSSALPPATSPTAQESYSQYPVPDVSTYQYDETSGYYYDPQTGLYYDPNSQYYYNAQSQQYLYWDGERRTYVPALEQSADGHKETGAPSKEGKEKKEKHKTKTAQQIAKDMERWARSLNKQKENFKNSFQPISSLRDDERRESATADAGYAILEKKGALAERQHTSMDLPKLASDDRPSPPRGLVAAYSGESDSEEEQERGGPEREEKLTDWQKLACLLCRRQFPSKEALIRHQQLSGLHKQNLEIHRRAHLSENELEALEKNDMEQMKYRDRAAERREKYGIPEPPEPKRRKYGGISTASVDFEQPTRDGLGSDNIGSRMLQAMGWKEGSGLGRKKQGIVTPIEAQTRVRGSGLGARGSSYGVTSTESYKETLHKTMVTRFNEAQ
UniProt P53611: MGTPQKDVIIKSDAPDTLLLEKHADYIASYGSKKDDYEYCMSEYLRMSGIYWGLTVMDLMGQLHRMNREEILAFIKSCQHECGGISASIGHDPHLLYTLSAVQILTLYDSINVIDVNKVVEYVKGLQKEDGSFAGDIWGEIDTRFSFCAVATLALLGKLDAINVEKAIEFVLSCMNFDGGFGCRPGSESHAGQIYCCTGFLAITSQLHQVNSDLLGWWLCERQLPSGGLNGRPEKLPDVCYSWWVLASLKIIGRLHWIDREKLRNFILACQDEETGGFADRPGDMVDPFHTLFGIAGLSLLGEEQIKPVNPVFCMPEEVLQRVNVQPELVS
UniProt Q9UJ41, whole entry, looked up: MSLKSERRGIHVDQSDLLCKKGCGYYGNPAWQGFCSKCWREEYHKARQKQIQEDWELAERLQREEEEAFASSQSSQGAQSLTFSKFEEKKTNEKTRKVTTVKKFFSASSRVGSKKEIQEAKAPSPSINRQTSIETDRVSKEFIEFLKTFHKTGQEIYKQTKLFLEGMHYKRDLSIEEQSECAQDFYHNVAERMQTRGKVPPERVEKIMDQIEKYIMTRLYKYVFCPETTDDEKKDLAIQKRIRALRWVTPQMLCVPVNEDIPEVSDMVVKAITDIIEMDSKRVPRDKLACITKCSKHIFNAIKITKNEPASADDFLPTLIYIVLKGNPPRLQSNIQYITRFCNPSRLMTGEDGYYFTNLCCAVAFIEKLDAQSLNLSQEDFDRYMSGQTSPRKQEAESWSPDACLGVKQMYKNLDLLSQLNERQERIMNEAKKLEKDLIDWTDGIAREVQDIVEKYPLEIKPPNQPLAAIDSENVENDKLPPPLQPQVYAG
UniProt Q8TBN0: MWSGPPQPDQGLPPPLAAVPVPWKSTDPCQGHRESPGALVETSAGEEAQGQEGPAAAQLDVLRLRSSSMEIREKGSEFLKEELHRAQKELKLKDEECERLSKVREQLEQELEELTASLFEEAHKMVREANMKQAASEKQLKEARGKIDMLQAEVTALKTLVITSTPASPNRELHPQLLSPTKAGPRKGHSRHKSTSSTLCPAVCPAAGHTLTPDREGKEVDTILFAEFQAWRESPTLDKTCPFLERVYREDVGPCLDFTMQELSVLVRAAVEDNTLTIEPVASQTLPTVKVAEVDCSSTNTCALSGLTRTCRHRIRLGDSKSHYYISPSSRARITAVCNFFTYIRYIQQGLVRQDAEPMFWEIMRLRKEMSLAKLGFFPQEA
UniProt P98179: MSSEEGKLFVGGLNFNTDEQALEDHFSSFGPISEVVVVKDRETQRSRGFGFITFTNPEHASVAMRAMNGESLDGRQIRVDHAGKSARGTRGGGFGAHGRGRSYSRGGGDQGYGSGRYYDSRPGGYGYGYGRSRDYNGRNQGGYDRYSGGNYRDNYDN
UniProt P06400: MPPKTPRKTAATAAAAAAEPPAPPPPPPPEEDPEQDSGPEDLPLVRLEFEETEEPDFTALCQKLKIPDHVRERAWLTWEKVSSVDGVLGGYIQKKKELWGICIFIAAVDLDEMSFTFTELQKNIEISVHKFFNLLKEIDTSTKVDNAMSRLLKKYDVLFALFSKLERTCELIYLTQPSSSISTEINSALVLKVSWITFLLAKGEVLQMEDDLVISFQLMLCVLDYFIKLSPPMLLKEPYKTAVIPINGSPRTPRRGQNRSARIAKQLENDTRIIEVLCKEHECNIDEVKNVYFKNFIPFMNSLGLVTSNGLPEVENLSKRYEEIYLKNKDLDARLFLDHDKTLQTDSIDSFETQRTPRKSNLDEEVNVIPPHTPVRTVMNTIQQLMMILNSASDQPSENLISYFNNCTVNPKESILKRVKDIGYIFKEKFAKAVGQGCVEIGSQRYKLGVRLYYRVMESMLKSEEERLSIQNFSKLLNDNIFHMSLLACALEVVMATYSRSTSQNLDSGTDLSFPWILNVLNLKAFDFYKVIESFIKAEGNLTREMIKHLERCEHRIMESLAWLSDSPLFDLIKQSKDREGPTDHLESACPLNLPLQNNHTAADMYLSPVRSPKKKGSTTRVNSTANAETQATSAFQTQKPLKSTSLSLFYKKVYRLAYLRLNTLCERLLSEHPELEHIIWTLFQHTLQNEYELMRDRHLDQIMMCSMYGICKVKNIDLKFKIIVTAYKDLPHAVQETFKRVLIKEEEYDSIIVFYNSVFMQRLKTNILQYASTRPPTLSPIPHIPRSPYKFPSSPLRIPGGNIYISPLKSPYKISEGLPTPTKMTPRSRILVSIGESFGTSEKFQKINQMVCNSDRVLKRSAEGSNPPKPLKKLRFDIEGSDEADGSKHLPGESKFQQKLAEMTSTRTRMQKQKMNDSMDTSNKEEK
UniProt P49756, whole entry, looked up: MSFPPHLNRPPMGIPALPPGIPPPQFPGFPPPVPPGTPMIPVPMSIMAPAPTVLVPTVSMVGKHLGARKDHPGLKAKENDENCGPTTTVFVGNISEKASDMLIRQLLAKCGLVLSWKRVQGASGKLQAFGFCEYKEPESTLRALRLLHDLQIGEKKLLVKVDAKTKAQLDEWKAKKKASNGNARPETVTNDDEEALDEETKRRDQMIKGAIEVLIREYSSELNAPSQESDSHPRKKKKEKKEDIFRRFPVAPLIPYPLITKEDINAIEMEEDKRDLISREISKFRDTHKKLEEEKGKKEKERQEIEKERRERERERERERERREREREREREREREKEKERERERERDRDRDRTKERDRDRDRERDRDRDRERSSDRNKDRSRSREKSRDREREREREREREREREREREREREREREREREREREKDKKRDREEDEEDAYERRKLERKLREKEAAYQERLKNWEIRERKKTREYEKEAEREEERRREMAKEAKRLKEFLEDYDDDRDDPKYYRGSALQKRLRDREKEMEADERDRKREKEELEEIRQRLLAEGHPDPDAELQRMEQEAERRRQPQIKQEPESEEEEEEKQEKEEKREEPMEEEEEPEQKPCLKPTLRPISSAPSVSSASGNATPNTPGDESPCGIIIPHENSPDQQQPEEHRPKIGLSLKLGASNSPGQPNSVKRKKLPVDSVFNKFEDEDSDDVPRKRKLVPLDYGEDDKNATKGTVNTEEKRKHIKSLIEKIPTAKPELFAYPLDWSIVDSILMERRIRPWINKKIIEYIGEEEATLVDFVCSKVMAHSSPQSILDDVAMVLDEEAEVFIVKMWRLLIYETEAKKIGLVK

Experiments:
Assay in all cases: log2 fold change, soluble protein after heating vs DMSO (PISA); higher = thermal stabilisation; K562 cells, 10 uM, 30 min; active = over 0.2 and 3.5 SD of the protein, either way, in both replicates (recomputed)
[1] = compound: C1=CC=C(C=C1)[C@H](COC2=CC3=C(C=C2)NC(=O)N3)NC(=O)C4=CC=CN(C4=O)CC5=CC(=C(C=C5)F)F
How it was run: (§1)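 K562 cells at 2×10^6 cells/mL were treated with 10 μM compound for 30 min. Aliquots were heated for 3 min across 48°C-58°C, pooled, and extracted in PBS with 0.5% NP-40 at 4°C; soluble protein was the supernatant after 21,000xg for 90 min. Soluble protein was quantified by TMTpro 16plex LC-MS/MS with channel sums equalised, and reported as log2 fold change in thermal stability against DMSO controls, with values from duplicates.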

[2] = compound: CC1=C(SC2=C1C(=N[C@H](C3=NN=C(N32)C)CC(=O)N)C4=CC=C(C=C4)Cl)C
How it was run: as §1

[3] = compound: CC1=C2C(=CC=C1)N=C(N(C2=O)C3=CC=CC=C3C)CN4C=NC5=C(N=CN=C54)N
How it was run: as §1

[4] = compound: Cc1sc2c(c1C)C(c1ccc(Cl)cc1)=N[C@@H](CC(=O)OC(C)(C)C)c1nnc(C)n1-2
How it was run: as §1

[5] = compound: c1ccc([C@@H]2C[C@H]2NC2CCNCC2)cc1
How it was run: as §1

Measured: log2 fold change

RAB13 (UniProt P51153)
inactive: [1] -0.037 | [2] -0.046 | [3] -0.162 | [4] -0.016 | [5] -0.004

RAE1 (UniProt P78406)
inactive: [1] -0.056 | [2] -0.029 | [3] -0.041 | [4] 0.06 | [5] -0.015

RAD9A (UniProt Q99638)
inactive: [1] -0.004 | [2] 0.031 | [3] -0.071 | [4] -0.03 | [5] -0.018

RANBP10 (UniProt Q6VN20)
inactive: [1] -0.104 | [2] 0.019 | [3] 0.065 | [4] -0.046 | [5] 0.003

RALA (UniProt P11233)
inactive: [1] 0.021 | [2] 0.046 | [3] 0.027 | [4] -0.016 | [5] 0.069

RAD18 (UniProt Q9NS91)
inactive: [1] -0.09 | [2] 0.035 | [3] 0.291 | [4] -0.023 | [5] 0.007

RAB6A isoform 2 (UniProt P20340)
inactive: [1] 0.007 | [2] 0.026 | [3] 0.037 | [4] 0 | [5] 0.014

RAB18 (UniProt H0Y6T8)
inactive: [1] -0.107 | [2] 0.019 | [3] 0.093 | [4] 0.163 | [5] 0.093

RABGAP1L isoform 3 (UniProt Q5R372)
inactive: [1] 0.007 | [2] 0.024 | [3] 0.033 | [4] -0.015 | [5] -0.005

RAB5IF isoform 5 (UniProt Q9BUV8)
inactive: [1] 0.003 | [2] 0.101 | [3] 0.024 | [4] -0.08 | [5] 0.028

RAB4B isoform 2 (UniProt P61018)
inactive: [1] 0.029 | [2] 0.04 | [3] 0.027 | [4] -0.064 | [5] -0.003

RARS2 (UniProt Q5T160)
inactive: [1] 0.021 | [2] 0.046 | [3] 0.044 | [4] -0.026 | [5] -0.007

RBM10 isoform 5 (UniProt P98175)
inactive: [1] 0.015 | [2] -0.089 | [3] 0.01 | [4] 0.156 | [5] 0.038

RAB11A (UniProt P62491)
inactive: [1] 0.01 | [2] 0.076 | [3] 0.194 | [4] -0.022 | [5] 0.009

RABGGTB (UniProt P53611)
inactive: [1] -0.138 | [2] 0.112 | [3] -0.021 | [4] -0.04 | [5] -0.005

RABGEF1 isoform 3 (UniProt Q9UJ41)
inactive: [1] 0.018 | [2] -0.008 | [3] 0.039 | [4] 0.036 | [5] -0.009

RAB3IL1 (UniProt Q8TBN0)
inactive: [1] 0.018 | [2] -0.013 | [3] 0.078 | [4] -0.03 | [5] -0.076

RBM3 (UniProt P98179)
inactive: [1] 0.044 | [2] -0.162 | [3] -0.066 | [4] 0.085 | [5] 0.014

RB1 (UniProt P06400)
inactive: [1] -0.038 | [2] 0.064 | [3] 0.048 | [4] 0.011 | [5] 0

RAB12, A0A3B3ITT1
inactive: [1] -0.003 | [2] 0.005 | [3] -0.008 | [4] -0.036 | [5] 0.011

6 successive entries from above:
RAB11A (UniProt P62491)
inactive: [1] 0.01 | [2] 0.076 | [3] 0.194 | [4] -0.022 | [5] 0.009

RABGGTB (UniProt P53611)
inactive: [1] -0.138 | [2] 0.112 | [3] -0.021 | [4] -0.04 | [5] -0.005

RABGEF1 isoform 3 (UniProt Q9UJ41)
inactive: [1] 0.018 | [2] -0.008 | [3] 0.039 | [4] 0.036 | [5] -0.009

RAB3IL1 (UniProt Q8TBN0)
inactive: [1] 0.018 | [2] -0.013 | [3] 0.078 | [4] -0.03 | [5] -0.076

RBM3 (UniProt P98179)
inactive: [1] 0.044 | [2] -0.162 | [3] -0.066 | [4] 0.085 | [5] 0.014

RB1 (UniProt P06400)
inactive: [1] -0.038 | [2] 0.064 | [3] 0.048 | [4] 0.011 | [5] 0

(listing goes on)

RAP2A (UniProt P10114)
inactive: [1] 0.025 | [2] 0.014 | [3] 0.059 | [4] 0.022 | [5] -0.036

RBM25 (UniProt P49756)
inactive: [1] -0.025 | [2] 0 | [3] 0.005 | [4] 0.051 | [5] 0.112

RAPGEF2, A0A2R8YGD3
inactive: [1] 0.384 | [2] -0.034 | [3] 0.158 | [4] -0.048 | [5] 0.036

RAB29 (UniProt O14966)
inactive: [1] -0.011 | [2] 0.087 | [3] 0.11 | [4] 0.109 | [5] -0.088
